## Library screening results

Measurements from “University of Dundee, Small-Polar-MMV Screening Library” (2021), ChEMBL document CHEMBL3988442.

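Viability assay of Plasmodium falciparum sporozoites; the read-out is not stated. The concentration is filed as 10 mM, unlikely as a test dose, so the dose is not known. The record gives no direction; compounds that gave an IC50 in retests scored well above the rest, so higher reads as lower viability. Strong results were mostly tested again. Size under these conditions: about 34,000 compounds, about 280 of them at 50% or above in at least one test.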

Each number is a percent effect as filed.
The controls that fix the scale are not given in the record; negative values are as filed.
This is an unselected part of the compounds tested.
Two or more numbers in one place are separate tests of the same structure; such repeats can differ widely.

For CCc1ccccc1Nc1noc2c1CN(C(=O)CCOC)CC2 the result was 18.13%. Result for Cn1cc(C(=O)NC2CCN(C(=O)NCCSC(F)(F)F)CC2)cn1 was -11.93%. CNS(=O)(=O)c1ccc(CNC(=O)NCC2CCOC2)cc1 (centres unmarked) read -6.243%. Result for Fc1cccc(CN2CCC[C@H](Cn3nnc(-c4ccccn4)n3)C2)c1 was 13.15%.

O=C1COc2ccc(C(=O)N3CCCC(n4ccnc4)C3)cc2N1 (centres unmarked) gave -0.06439%. For COc1ccc(CNC(=O)NC(C)Cn2cccn2)cc1O (centres unmarked) the result was -21.73%. For COCCN(Cc1cccc(O)c1)CC1CC1 the result was -0.09083%. Cc1ccc(CNC(=O)Nc2nnc(C3CC3)s2)n1C read -7.558%.

Result for Cn1ccnc1CN1CCC2(COCCN(S(=O)(=O)C3CC3)C2)C1 (centres unmarked) was 2.483%. Result for CCCC(=O)NC(C)c1nnc2n1CCC2 (centres unmarked) was -2.898%. CN1C(=O)CC(c2ccccc2)C12CCN(CCO)CC2.O=C(O)C(F)(F)F (centres unmarked) read 6.392%. O=C(O)C(F)(F)F.O=C(O)C(F)(F)F.[H][C@@]12CN(Cc3nccs3)C[C@@H](C(=O)NC3CCCC3)[C@]1([H])CCO2 read -9.573%.

CC(C)OCc1ccc(CNc2cncc(-n3cccn3)n2)cc1 read 3.853%. Result for CNC(=O)COC1COC2(CCN(Cc3cccnc3OC)CC2)C1.O=C(O)C(F)(F)F (centres unmarked) was -1.04%. CC1CN(C)c2ccccc2CN1C(=O)c1cc(C#N)cn1C (centres unmarked) gave -5.088%. CC(C)(O)CN1CCN(C(=O)c2cccn2Cc2cccnc2)CC1 gave -6.128%.

With Cc1ncsc1CCN(C)Cc1cc2n(n1)CCN(Cc1ccco1)C2 the screen gave 17.41%. C[C@@H]1C[C@H](C(F)(F)F)n2nc(C3CCN(S(C)(=O)=O)CC3)cc2N1 read 2.824%. For Cn1cc(C(=O)Nc2ccc3c(c2)CN(C(=O)C2CC2)CC3)nn1 the result was 13.52%. Cc1ccc(CN2Cc3nnn(C)c3C(COCc3ccccc3)C2)o1.O=C(O)C(F)(F)F (centres unmarked) read 7.056%.

For CCOC(=O)c1sc(NC(=O)CN(C)S(C)(=O)=O)c(C#N)c1C the result was 0.5587%. CCc1nccn1C1CCCN(C(=O)Cc2cn3ccccc3n2)C1 (centres unmarked) read -13.13%. CCc1nc(CN2CCCC(NCc3cnc(C)s3)C2)no1 (centres unmarked) read 7.522%. For COCCn1cc(C(=O)N2CCCC2c2cc(C)on2)c2ccccc21 (centres unmarked) the result was 4.741%.

Result for Cc1nc(C)n(CC2CCCN(CC(=O)Nc3ccncc3)C2)n1 (centres unmarked) was 7.313%. With COc1ccc2c(ccn2CCC(=O)/N=c2\[nH]nc(C3CCCO3)s2)c1 (centres unmarked) the screen gave -0.8242%. Result for COc1c(C(=O)N2CCOC(c3cccs3)C2)c(C)nn1C (centres unmarked) was -19.18%. For CC(C)(C)C(=O)N1CCCC1c1nccnc1Cl (centres unmarked) the result was 7.868%.

Result for COc1ccc(-c2noc(CN3CC(n4cc(C)cn4)C3)n2)cc1 was -5.01%. CCc1nc(C2CCCN(C(=O)c3ccc4[nH]nnc4c3)C2)no1 (centres unmarked) read -6.705% and -14.88% and -20.42%. Result for CS(=O)(=O)N1CCC(Oc2cnccn2)CC1 was -12.4%. For CC(C)N1CCC(c2cnc(-c3cn[nH]c3)cn2)CC1 the result was 4.75%.

With CC(=O)N1N=C(c2cccs2)OC1C(=O)NCCc1cccc(Cl)c1 (centres unmarked) the screen gave -21.59%. CCOCC(O)CN1CCN(C(=O)c2ccc(C)nc2)CC1 (centres unmarked) read 9.434%. For O=C(c1cc[nH]n1)N1CCC(c2cc(Nc3ccccn3)n[nH]2)CC1 the result was 7.261%.

For reference, 3 entries once more:

Result for Cn1cc(C(=O)NC2CCN(C(=O)NCCSC(F)(F)F)CC2)cn1 was -11.93%.
Result for COc1c(C(=O)N2CCOC(c3cccs3)C2)c(C)nn1C (centres unmarked) was -19.18%.
Result for CNS(=O)(=O)c1ccc(CNC(=O)NCC2CCOC2)cc1 (centres unmarked) was -6.243%.